This is an account of results in article PMC7037036, “C-Terminal Domain of the Human Zinc Transporter hZnT8 Is Structurally Indistinguishable from Its Disease Risk Variant (R325W)” (International Journal of Molecular Sciences, 2020).

Results are given in words; binding and its absence hold for the method and conditions named.

In this experiment the target is C-terminal domain (CTD) of the human zinc transporter 8 (hZnT8), wild type (human) (UniProt Q8IWU4). The experiment is described as follows: SEC; Superdex 75, protein 10 mg/mL, 20 mM Tris pH 7.5, 150 mM NaCl with 5 mM EDTA; both purified. (In general: In gel filtration, larger molecules generally elute earlier.)

B1: C-terminal domain (CTD) of the human zinc transporter 8 (hZnT8), wild type (domain or fragment, UniProt Q8IWU4 281-369, looked up)
chain: SLNYSGVKELILAVDGVLSVHSLHIWSLTMNQVILSAHVATAASRDSQVVRREIAKALSKSFTMHSLTIQMESPVDQDPDCLFCEDPCD
notes: human zinc transporter 8 (hZnT8, SLC30A8), C-terminal domain, Ser281-Asp369; Expressed as His-MBP-TEV-CTD from a pET28a-based vector; N-terminal tags removed with TEV protease; Measured mass 9.828 kDa; also called WT CTD; hZnT8 CTD; source: E. coli BL21 (DE3), purified (Ni-NTA, TEV cleavage, Hi-Trap Q anion exchange, repeated Ni-NTA, amylose resin); not shown: His tag, N-terminal, cleaved; MBP, …
Turning to B1, the binding entry is reported as “no binding (condition: with 5 mM EDTA)”.
